Binding data for two substances are collected here from paper PMC7617749.

Chains of the proteins cited; added tags and fusions are not shown. Lines headed by an entry give the natural chain unless they say otherwise; changes in a name come on top.
UniProt P16520: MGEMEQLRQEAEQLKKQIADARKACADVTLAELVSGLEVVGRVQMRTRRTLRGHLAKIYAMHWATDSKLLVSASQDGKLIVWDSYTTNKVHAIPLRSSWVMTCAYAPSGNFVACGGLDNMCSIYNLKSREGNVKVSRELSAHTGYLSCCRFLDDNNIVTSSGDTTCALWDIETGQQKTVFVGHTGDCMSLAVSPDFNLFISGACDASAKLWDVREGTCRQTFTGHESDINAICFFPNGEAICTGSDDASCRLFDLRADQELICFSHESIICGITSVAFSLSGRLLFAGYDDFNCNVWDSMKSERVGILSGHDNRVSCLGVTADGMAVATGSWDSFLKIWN
UniProt P63092: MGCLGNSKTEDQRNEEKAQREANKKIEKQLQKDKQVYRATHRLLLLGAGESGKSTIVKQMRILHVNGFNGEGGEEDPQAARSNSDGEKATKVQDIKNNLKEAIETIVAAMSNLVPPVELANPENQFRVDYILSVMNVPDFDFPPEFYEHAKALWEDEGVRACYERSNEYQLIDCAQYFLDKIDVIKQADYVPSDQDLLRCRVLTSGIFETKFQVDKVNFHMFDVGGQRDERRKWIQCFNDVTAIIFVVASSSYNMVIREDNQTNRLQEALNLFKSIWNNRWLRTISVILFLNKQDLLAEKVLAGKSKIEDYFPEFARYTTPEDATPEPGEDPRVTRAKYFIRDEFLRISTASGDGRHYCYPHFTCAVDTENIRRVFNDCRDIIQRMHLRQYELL

These are yes or no findings as the source states them, for the method shown. Binding seen in cells or lysates may run through a third protein. Some binding calls cover weakened binding; strength is not graded here.

The target in this test is Gβγ (Gβ3 and Gγ9-GFP2 of the TRUPATH biosensor kit) (UniProt P16520). The experiment in a line: FRET or BRET; TRUPATH G protein activation assay: HEK293T cells co-transfected with receptor (PTH1R; also ADRB2), Gαs-RLuc8 WT/E392K/L388R, Gβ3 and Gγ9-GFP2; loss of BRET between Gαs and Gβγ after 1 µM PTH(1-34) (10 µM isoprenaline for ADRB2); HBSS with 20 mM HEPES, 0.1% BSA, pH 7.4, coelenterazine 400a 5 µM; read every 60 s for 15 min; baseline-corrected with DMSO.

In the case of “Gαs-Rluc8 (wild type) (from UniProt P63092 1-394)”, the binding result is “binds”.

Take “GαsE392K-Rluc8 (from UniProt P63092 1-394)”: the binding result is reported as “binds”.
